According to patent US20140093884A1, “Process for Identifying Novel Anti-Inflammatory Molecules with Reduced Direct Transrepression of Genes Induced by Glucocorticoids” (UNIVERSITE DE STRASBOURG, priority 2011, published 2014):
At least one structure is not confirmed: it was looked up by name or label, or the drawing left a doubt.

What was measured:
[1] = test system: AP1-driven transcription (PGL4-AP1 vector); assay: Luciferase assay in IL-1β-activated A549 cells transfected with PGL4-AP1; assay type: cell-based, human; details: 6 hours, FIG. 15A right panel
Experimental: (§1) A549 cells transfected with PGL4-NFκB (NFκBluc plasmid) of SEQ ID NO:56 and PGL4-AP1 (AP1luc plasmid) of SEQ ID NO:55 were treated as indicated for 6 hours, followed by luciferase assay. “BAY”=NFκB-specific inhibitor BAY 11-7082 and “JNK inhibit”=JNK inhibitor II). • B) Q-RT-PCR of gene transcripts from WT dorsal epidermis topically-treated with Dexamethasone or RU24858 for 18 hours (left panel) and from liver of WT mice IP-injected with Dexamethasone or RU24858 for 18 hours (right panel).
(§2) Luciferase reporter assay. A549 cells seeded on 24-well tissue culture plates overnight at 70% confluency were transfected with 100 ng pCMV β galactosidase, 200 ng pGL3 reporter plasmids and wherever indicated, with 600 ng pSG5 hVDR plasmid (Green et al., 1988) into each well and maintained in medium containing charcoal treated FCS. 24 hours post-transfection, medium was changed and different compounds were added to it for 6 hours. Final concentrations of the compounds are: FA, 500 nM; Dex or RU24858, 300 nM or 500 nM (wherever 300 nM Dex or RU was used, it is indicated in the figure, in all other cases, 500 nM concentration was used); active vitamin D3, 1 μM; IL-1β, 5 ng/ml; BAY 11-7082, 5 μM, JNK inhibitor II, 25 μM. Luciferase assay was carried out as instructed (Promega). […]

[2] = test system: NFκB-driven transcription (PGL4-NFκB vector); assay: Luciferase assay in IL-1β-activated A549 cells transfected with PGL4-NFκB; assay type: cell-based, human; details: 6 hours, FIG. 15A left panel
Experimental: as §1, §2

[3] = test system: (+)GRE-containing GPX3 gene; details: mouse, in vivo

SMILES: C[C@@H]1C[C@H]2[C@@H]3CCC4=CC(=O)C=C[C@]4(C)[C@@]3(F)[C@@H](O)C[C@]2(C)[C@@]1(O)C(=O)CO [Dex, dexamethasone]
- repression of IL1β-induced activation of transcription by AP1 [1]: similarly repress
- repression of IL1β-induced activation of transcription by NFκB [2]: similarly repress
- induction of (+)GRE-containing GPX3 gene [3]: not GC-induced
